The values that follow come from ChEMBL document CHEMBL5674883, “The Heterochromatin Landscape in Migrating Cells and the Importance of H3K27me3 for Associated Transcriptome Alterations” (Cells, 2018).

Sequences of proteins named here, by UniProt entry; tags and fusion partners are left off.
UniProt Q61188, whole entry: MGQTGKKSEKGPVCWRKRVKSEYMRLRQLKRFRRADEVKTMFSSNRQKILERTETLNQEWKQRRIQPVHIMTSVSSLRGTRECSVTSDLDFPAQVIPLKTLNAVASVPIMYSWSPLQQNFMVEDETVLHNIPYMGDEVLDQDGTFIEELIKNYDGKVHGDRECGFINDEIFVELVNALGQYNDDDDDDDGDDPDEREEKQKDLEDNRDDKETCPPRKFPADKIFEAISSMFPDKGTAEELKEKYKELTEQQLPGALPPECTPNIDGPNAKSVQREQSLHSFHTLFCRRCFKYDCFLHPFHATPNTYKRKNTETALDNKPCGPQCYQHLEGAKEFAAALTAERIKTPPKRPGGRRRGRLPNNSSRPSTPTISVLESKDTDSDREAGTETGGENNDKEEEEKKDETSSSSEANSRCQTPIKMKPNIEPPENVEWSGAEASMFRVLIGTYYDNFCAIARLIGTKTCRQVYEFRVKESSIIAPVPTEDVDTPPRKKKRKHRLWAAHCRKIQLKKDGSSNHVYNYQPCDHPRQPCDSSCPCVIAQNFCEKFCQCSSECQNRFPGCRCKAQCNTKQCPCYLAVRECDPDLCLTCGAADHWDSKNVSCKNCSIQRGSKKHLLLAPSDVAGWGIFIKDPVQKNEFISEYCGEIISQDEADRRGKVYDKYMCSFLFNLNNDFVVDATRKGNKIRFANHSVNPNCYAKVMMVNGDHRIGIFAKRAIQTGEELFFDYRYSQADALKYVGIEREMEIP

What all share (assay type): cell-based
The target of assay [1] is T1, RNA polymerase II (Mus musculus) (UniProt P08775+Q8CFI7+P97760+A0A3Q4L2S8+Q80UW8+P61219+P62488+Q923G2+P60898+O08740+Q63871+P62876). Kind of assay: Inhibition of RNA polymerase II in mouse B16-F1 migrating cells assessed as fold change in L2hgdh-RNA stability at 0.1 mM measured by ChIP-seq analysis relative to control cells.
The target of assay [2] is T1, RNA polymerase II (Mus musculus). Description: Inhibition of RNA polymerase II in mouse B16-F1 migrating cells assessed as fold change in Ugcg-RNA stability at 0.1 mM measured by ChIP-seq analysis relative to control cells.
The target is the same in assay [3]. Description: Inhibition of RNA polymerase II in mouse B16-F1 migrating cells assessed as fold change in Spr-RNA stability at 0.1 mM measured by ChIP-seq analysis relative to control cells.
The target is the same in assay [4]. Kind of assay: Inhibition of RNA polymerase II in mouse B16-F1 migrating cells assessed as fold change in Prelid2-RNA stability at 0.1 mM measured by ChIP-seq analysis relative to control cells.
Assay [5] has the same target. Kind of assay: Inhibition of RNA polymerase II in mouse B16-F1 migrating cells assessed as fold change in Slk-RNA stability at 0.1 mM measured by ChIP-seq analysis relative to control cells.
Assay [6] has the same target. Kind of assay: Inhibition of RNA polymerase II in mouse B16-F1 migrating cells assessed as fold change in Glrb-RNA stability at 0.1 mM measured by ChIP-seq analysis relative to control cells.
The target is the same in assay [7]. Kind of assay: Inhibition of RNA polymerase II in mouse B16-F1 migrating cells assessed as fold change in Trim23-RNA stability at 0.1 mM measured by ChIP-seq analysis relative to control cells.
Assay [8] shares this target. Kind of assay: Inhibition of RNA polymerase II in mouse B16-F1 migrating cells assessed as fold change in Dnm1-RNA stability at 0.1 mM measured by ChIP-seq analysis relative to control cells.
Assay [9] has the same target. Description: Inhibition of RNA polymerase II in mouse B16-F1 migrating cells assessed as fold change in Mpp2-RNA stability at 0.1 mM measured by ChIP-seq analysis relative to control cells.
Assay [10] has the same target. Kind of assay: Inhibition of RNA polymerase II in mouse B16-F1 migrating cells assessed as fold change in Loxl2-RNA stability at 0.1 mM measured by ChIP-seq analysis relative to control cells.
Assay [11] has the same target. Description: Inhibition of RNA polymerase II in mouse B16-F1 migrating cells assessed as fold change in Csgalnact2-RNA stability at 0.1 mM measured by ChIP-seq analysis relative to control cells.
The target is the same in assay [12]. Kind of assay: Inhibition of RNA polymerase II in mouse B16-F1 migrating cells assessed as fold change in Rex1bd-RNA stability at 0.1 mM measured by ChIP-seq analysis relative to control cells.
Assay [13] shares this target. Kind of assay: Inhibition of RNA polymerase II in mouse B16-F1 migrating cells assessed as fold change in Lnpk-RNA stability at 0.1 mM measured by ChIP-seq analysis relative to control cells.
The target is the same in assay [14]. Description: Inhibition of RNA polymerase II in mouse B16-F1 migrating cells assessed as fold change in Hnrnpa3-RNA stability at 0.1 mM measured by ChIP-seq analysis relative to control cells.
For assay [15] the target is unchanged. Description: Inhibition of RNA polymerase II in mouse B16-F1 migrating cells assessed as fold change in Timm10b-RNA stability at 0.1 mM measured by ChIP-seq analysis relative to control cells.
Assay [16] has the same target. Description: Inhibition of RNA polymerase II in mouse B16-F1 migrating cells assessed as fold change in Enc1-RNA stability at 0.1 mM measured by ChIP-seq analysis relative to control cells.
Assay [17] has the same target. Kind of assay: Inhibition of RNA polymerase II in mouse B16-F1 migrating cells assessed as fold change in Hnrnpm-RNA stability at 0.1 mM measured by ChIP-seq analysis relative to control cells.
Assay [18] shares this target. Description: Inhibition of RNA polymerase II in mouse B16-F1 migrating cells assessed as fold change in Zfp280d-RNA stability at 0.1 mM measured by ChIP-seq analysis relative to control cells.
Assay [19] concerns the target Histone-lysine N-methyltransferase EZH2 (Mus musculus) (UniProt Q61188). Description: Inhibition of EZH2 in mouse B16-F1 migrating cells assessed as fold change in H3K27me3-buffered regulated Slfn9-mRNA expression at 3 uM measured by ChIP-seq analysis relative to control cells.
Assay [20] shares this target. Kind of assay: Inhibition of EZH2 in mouse B16-F1 migrating cells assessed as fold change in H3K27me3-buffered regulated Gm45546-mRNA expression at 3 uM measured by ChIP-seq analysis relative to control cells.
Assay [21] shares this target. Description: Inhibition of EZH2 in mouse B16-F1 migrating cells assessed as fold change in H3K27me3-independent regulated Lif-mRNA expression at 3 uM measured by ChIP-seq analysis relative to control cells.
Assay [22] has the same target. Kind of assay: Inhibition of EZH2 in mouse B16-F1 migrating cells assessed as fold change in H3K27me3-buffered regulated B3galt5-mRNA expression at 3 uM measured by ChIP-seq analysis relative to control cells.
The target is the same in assay [23]. Kind of assay: Inhibition of EZH2 in mouse B16-F1 migrating cells assessed as fold change in H3K27me3-buffered regulated Otud1-mRNA expression at 3 uM measured by ChIP-seq analysis relative to control cells.
Assay [24] shares this target. Kind of assay: Inhibition of EZH2 in mouse B16-F1 migrating cells assessed as fold change in H3K27me3-buffered regulated Boc-mRNA expression at 3 uM measured by ChIP-seq analysis relative to control cells.
For assay [25] the target is unchanged. Description: Inhibition of EZH2 in mouse B16-F1 migrating cells assessed as fold change in H3K27me3-independent regulated Sema4g-mRNA expression at 3 uM measured by ChIP-seq analysis relative to control cells.
Assay [26] has the same target. Kind of assay: Inhibition of EZH2 in mouse B16-F1 migrating cells assessed as fold change in H3K27me3-buffered regulated Bag3-mRNA expression at 3 uM measured by ChIP-seq analysis relative to control cells.
Assay [27] shares this target. Description: Inhibition of EZH2 in mouse B16-F1 migrating cells assessed as fold change in H3K27me3-independent regulated Mis18bp1-mRNA expression at 3 uM measured by ChIP-seq analysis relative to control cells.
The target is the same in assay [28]. Kind of assay: Inhibition of EZH2 in mouse B16-F1 migrating cells assessed as fold change in H3K27me3-buffered regulated Rif1-mRNA expression at 3 uM measured by ChIP-seq analysis relative to control cells.
For assay [29] the target is unchanged. Kind of assay: Inhibition of EZH2 in mouse B16-F1 migrating cells assessed as fold change in H3K27me3-buffered regulated Cep170-mRNA expression at 3 uM measured by ChIP-seq analysis relative to control cells.
For assay [30] the target is unchanged. Kind of assay: Inhibition of EZH2 in mouse B16-F1 migrating cells assessed as fold change in H3K27me3-buffered regulated Cdc14a-mRNA expression at 3 uM measured by ChIP-seq analysis relative to control cells.

This continues a long series; more values of the same kind are listed elsewhere.

`OC[C@H]1O[C@@H](n2cnc3cc(Cl)c(Cl)cc32)[C@H](O)[C@@H]1O`: the log2FC in assay [1] was -0.52; in assay [2] it was -0.74; in [3] it was 0.39; in assay [4], 0.81; in [5], -0.76; in assay [6], -0.44. Further, the log2FC in [7] is -0.83; in [8], 0.7; in assay [9], 1.03; in assay [10], 0.83; in [11], -0.68; in [12], 0.49. The log2FC in [13] is -0.65; in assay [14], -0.52; in assay [15], 0.45; in [16] it was -0.71; in assay [17] it was -0.52; in assay [18], -0.55.
With `CCCc1cc(C)[nH]c(=O)c1CNC(=O)c1cc(-c2ccnc(N3CCN(C)CC3)c2)cc2c1cnn2C(C)C`, the log2FC in assay [19] was -0.59; in [20] it was -1.13; in [21], 1.15; in [22], 0.51; in assay [23], -0.48; in [24] it was -0.86. Further, the log2FC in assay [25] was 0.48; in assay [26], 0.47; in assay [27], -0.66; in [28], -0.43; in assay [29], -0.38; in assay [30] it was -0.42.
